Experimental data taken from patent US7540883B2, “Reactive yellow dye composition” (Everlight USA, Inc., priority 2007, dated 2009).

Assay: Dyeing test (exhaust dyeing, printing, continuous dyeing) with appearance strength (K/S) measured by spectrophotometer
Conditions: overall K/S value within visible light 300-700 nm

Nc1cc(N)c(S(=O)(=O)O)cc1N=Nc1ccc(S(=O)(=O)CCOS(=O)(=O)O)cc1 [Formula (1)]
Appearance Strength (Table 2, single dye Formula (1) = 100%): 100%

Nc1c(N=Nc2ccc(S(=O)(=O)CCOS(=O)(=O)O)cc2)cc(S(=O)(=O)O)c(N)c1N=Nc1ccc(S(=O)(=O)CCOS(=O)(=O)O)cc1 [Formula (2)]
Appearance Strength (Table 3, single dye Formula (2) = 100%): 100%

CC(=O)Nc1cc(N)c(S(=O)(=O)O)cc1N=Nc1ccc(S(=O)(=O)CCOS(=O)(=O)O)cc1 [Formula (3)]
Appearance Strength (Table 4, single dye Formula (3) = 100%): 100%

NC(=O)Nc1cc(Nc2nc(Cl)nc(Nc3ccc(S(=O)(=O)CCOS(=O)(=O)O)cc3)n2)ccc1N=Nc1cc2c(S(=O)(=O)O)cc(S(=O)(=O)O)cc2cc1S(=O)(=O)O [Formula (4)]
Appearance Strength (Table 5, single dye Formula (4) = 100%): 100%
